# Source: PubChem BioAssay AID488950 (Broad Institute, 2010)
# The source calls these results inconclusive, neither active nor inactive.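 The calls were made as follows: active = fitted half-maximal dose for growth inhibition no higher than ten times the top tested dose; inconclusive = flat curve with 30 to 70% inhibition, or poor fit; inactive = the rest.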
# Assay: growth inhibition of resistant C. albicans, dose response, CaCi-8 strain, fluconazole, dry powder, set 4 (AID 488950)
# Details: C. albicans CaCi-8 + fluconazole, Alamar Blue growth, 48 h; at 26 µM (top of the series)
smiles,measurement,value
Cc1cccc(N2CCN(C(=O)c3ccc(Cl)cc3)CC2)n1,"activity change, negative = inhibition",inconclusive: -19.9%
